Assay results: patent publication EP1227812B1, “TOPICAL NASAL TREATMENT USING DESLORATADINE AND MOMETASONE FUROATE” (SCHERING CORPORATION, priority 1999, dated 2001)
Like-named read-outs stand apart in the source and are kept apart here.

Test system: histamine-induced vascular permeability increases in nasal mucosa
Details: for % Inhibition: percent inhibition of vasopermeability vs vehicle, mean, 10 min before 1 mM histamine perfusion

Clc1ccc2c(c1)CCc1cccnc1C2=C1CCNCC1 [Desloratadine, desloratadine]
activity in this test relative to loratadine (comparison of desloratadine with loratadine): approximately an order of magnitude more active
% Inhibition (dose 0.1 µg instilled into the nares): 0%
% Inhibition (dose 0.3 µg instilled into the nares): 36%
% Inhibition (dose 1 µg instilled into the nares): 50%
% Inhibition (dose 3 µg instilled into the nares): 69%
% Inhibition (dose 10 µg instilled into the nares): 56%
